Consider two compounds from US20240329050A1, “METHODS OF DETECTING PENTASACCHARIDES AND TREATMENT AND MONITORING OF LYSOSOMAL STORAGE DISEASE” (Washington University, priority 2021, published 2024).

The series is described as follows: Profiling of oligosaccharides in cat CNS samples. As to conditions: for Detection in CNS of GM1 gangliosidosis cat model: cat CNS samples.

On to `CC(=O)N[C@H]1[C@H](O[C@@H]2[C@@H](OC[C@H]3O[C@@H](O[C@H]4[C@H](O)[C@@H](NC(C)=O)C(O)O[C@@H]4CO)[C@@H](O)[C@@H](O)[C@@H]3O)O[C@H](CO)[C@@H](O)[C@@H]2O)O[C@H](CO)[C@@H](O[C@@H]2O[C@H](CO)[C@H](O)[C@H](O)[C@H]2O)[C@@H]1O` (stereo partly drawn) [H3N2a, O-β-D-galactopyranosyl-(1→4)-O-(2-acetamido-2-deoxy-β-D-glucopyranosyl)-(1→2)-O-α-D-mannopyranosyl-(1→6)-O-β-D-mannopyranosyl-(1→4)-2-acetamido-2-deoxy-α,β-D-glucopyranose], for which the “Detection in CNS of GM1 gangliosidosis cat model” value is “undetectable”. `CC(=O)N[C@H]1[C@H](O[C@@H]2[C@@H](O[C@@H]3[C@H](O)[C@H](O[C@H]4[C@H](O)[C@@H](NC(C)=O)C(O)O[C@@H]4CO)O[C@H](CO)[C@H]3O)O[C@H](CO)[C@@H](O)[C@@H]2O)O[C@H](CO)[C@@H](O[C@@H]2O[C@H](CO)[C@H](O)[C@H](O)[C@H]2O)[C@@H]1O` (stereo partly drawn) [H3N2b, O-β-D-galactopyranosyl-(1→4)-O-(2-acetamido-2-deoxy-β-D-glucopyranosyl)-(1→2)-O-α-D-mannopyranosyl-(1→3)-O-β-D-mannopyranosyl-(1→4)-2-acetamido-2-deoxy-α,β-D-glucopyranose]: the “Detection in CNS of GM1 gangliosidosis cat model” value is “detectable”. The “Elevation in GM1 gangliosidosis cat CNS” value (brain stem, cerebellum, spinal cord, frontal, occipital, parietal, temporal cortex, thalamus) is given as > 100 fold.
